Experimental data: the supplement of paper PMC4604168 (melanoma cell lines)
This is one part of the list. Single values are uncertain, as repeats are few or missing.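 Imaging used 1,536-well plates; nuclei positive for cleaved PARP by antibody were divided by total DNA-stained nuclei to yield the apoptosis fraction. Doses for screening kept most cells viable, and cell lines differ markedly in resting and induced cleaved-PARP levels.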

Legend:
Assay in all cases: cleaved PARP positive nuclei fraction relative to DMSO control; melanoma cells; higher = more apoptosis
Conditions in all cases: library dose: low library concentration; 72 h
CBRC034 = test system: CBRC034 (line from a melanoma biopsy)
COLO792 = test system: COLO792
COLO800 = test system: COLO800
COLO829 = test system: COLO829
G361 = test system: G361
IPC-298 = test system: IPC-298
IST-MEL1 = test system: IST-MEL1
LB2518-MEL = test system: LB2518-MEL
LOXIMVI = test system: LOXIMVI

Row | Compound | cleaved PARP positive nuclei fraction (CBRC034) [%] | cleaved PARP positive nuclei fraction (COLO792) [%] | cleaved PARP positive nuclei fraction (COLO800) [%] | cleaved PARP positive nuclei fraction (COLO829) [%] | cleaved PARP positive nuclei fraction (G361) [%] | cleaved PARP positive nuclei fraction (IPC-298) [%] | cleaved PARP positive nuclei fraction (IST-MEL1) [%] | cleaved PARP positive nuclei fraction (LB2518-MEL) [%] | cleaved PARP positive nuclei fraction (LOXIMVI) [%]
1 | Cc1cc(N2CCOCC2)cc2[nH]c(-c3c(NC[C@@H](O)c4cccc(Cl)c4)cc[nH]c3=O)nc12 + C/C(O)=C(\C#N)C(=O)Nc1cc(Br)ccc1Br [LFM-A13] (first compound 0.2 µM, partner dose 2 µM) | 43.8 | 141 | 119 | 115 | 185 | 209 | 127 | 77.2 | 69.5
2 | COc1ccc(-c2ccc3c(N4CCOCC4)nc(N4C[C@@H](C)O[C@@H](C)C4)nc3n2)cc1CO + O=C(Oc1ccc([N+](=O)[O-])cc1)N1CCC(C(O)(c2ccc3c(c2)OCO3)c2ccc3c(c2)OCO3)CC1 [JZL184] (first compound 0.02 µM, partner dose 1 µM) | 117 | 69.3 | 154 | 66.7 | 113 | 38.3 | 66.1 | 75.5 | 100
3 | NC(=O)Nc1cc(-c2cccc(F)c2)sc1C(=O)N[C@H]1CCCNC1 + O=C(Oc1ccc([N+](=O)[O-])cc1)N1CCC(C(O)(c2ccc3c(c2)OCO3)c2ccc3c(c2)OCO3)CC1 [JZL184] (first compound 0.02 µM, partner dose 1 µM) | 79.1 | 40.2 | 57.8 | 109 | 151 | 101 | 41.3 | 93.2 | 35.1
4 | Cc1cc(SCc2sc(-c3ccc(C(F)(F)F)c(F)c3)nc2C)ccc1OCC(=O)O + O=C(O)C(=O)Nc1sc2c(c1C(=O)O)CCNC2 [TCS401] (first compound 2 µM, partner dose 1.66667 µM) | 43.6 | 94.6 | 147 | 124 | 46.8 | 69.3 | 123 | 116 | 29.5
5 | O=C(CCCCCCC(=O)Nc1ccccc1)NO [vorinostat] + Cc1cc(SCc2sc(-c3ccc(C(F)(F)F)c(F)c3)nc2C)ccc1OCC(=O)O [GW0742] (first compound 0.08 µM, partner dose 2 µM) | 71 | 151 | 76.3 | 73.1 | 15.7 | 87.5 | 188 | 86.7 | 44.3
6 | CO[C@@H]1[C@H](N(C)C(=O)c2ccccc2)C[C@H]2O[C@]1(C)n1c3ccccc3c3c4c(c5c6ccccc6n2c5c31)C(=O)NC4 [Midostaurin] + O=C(Oc1ccc([N+](=O)[O-])cc1)N1CCC(C(O)(c2ccc3c(c2)OCO3)c2ccc3c(c2)OCO3)CC1 [JZL184] (first compound 0.08 µM, partner dose 1 µM) | 99.3 | 60.1 | 81.8 | 128 | 51.2 | 114 | 86.3 | 77.7 | 84.6
7 | COc1cc(Nc2ncc(F)c(Nc3ccc4c(n3)NC(=O)C(C)(C)O4)n2)cc(OC)c1OC [Tamatinib] + C/C(O)=C(\C#N)C(=O)Nc1cc(Br)ccc1Br [LFM-A13] (first compound 0.4 µM, partner dose 2 µM) | 93.1 | 128 | 24.3 | 123 | 230 | 49.2 | 174 | 77.9 | 21.8
8 | Cn1nnc2c(C(N)=O)ncn2c1=O [temozolomide] + O=C(Oc1ccc([N+](=O)[O-])cc1)N1CCC(C(O)(c2ccc3c(c2)OCO3)c2ccc3c(c2)OCO3)CC1 [JZL184] (first compound 2 µM, partner dose 1 µM) | 161 | 106 | 101 | 146 | 54.4 | 110 | 189 | 71 | 54
9 | CCc1ccc(CCOc2ccc(CC3SC(=O)NC3=O)cc2)nc1 (stereo unspecified) [pioglitazone] + O=C(Oc1ccc([N+](=O)[O-])cc1)N1CCC(C(O)(c2ccc3c(c2)OCO3)c2ccc3c(c2)OCO3)CC1 [JZL184] (first compound 2 µM, partner dose 1 µM) | 67 | 57.4 | 115 | 204 | 62.3 | 164 | 145 | 214 | 15.1
10 | Nc1cccc2c1CN(C1CCC(=O)NC1=O)C2=O (stereo unspecified) [lenalidomide] + C/C(O)=C(\C#N)C(=O)Nc1cc(Br)ccc1Br [LFM-A13] (first compound 1 µM, partner dose 2 µM) | 53.1 | 116 | 145 | 106 | 141 | 164 | 45.4 | 197 | 87.9
11 | C[C@@H]1CCN(C(=O)CC#N)C[C@@H]1N(C)c1ncnc2[nH]ccc12 + Cc1cc(SCc2sc(-c3ccc(C(F)(F)F)c(F)c3)nc2C)ccc1OCC(=O)O [GW0742] (first compound 1 µM, partner dose 2 µM) | 87 | 58.2 | 83.6 | 214 | 79.9 | 105 | 89.7 | 88.6 | 66.9
12 | CC1(C)NC(=O)N(c2ccc([N+](=O)[O-])c(C(F)(F)F)c2)C1=O [nilutamide] + C/C(O)=C(\C#N)C(=O)Nc1cc(Br)ccc1Br [LFM-A13] (first compound 1 µM, partner dose 2 µM) | 92.9 | 105 | 102 | 94.1 | 134 | 107 | 156 | 191 | 34.6
13 | C/C(O)=C(\C#N)C(=O)Nc1cc(Br)ccc1Br + O=c1cc(-c2cccc3c2Sc2ccccc2S3)oc(N2CCOCC2)c1 [KU55933] (first compound 2 µM, partner dose 1 µM) | 184 | 114 | 112 | 33.5 | 143 | 239 | 85.2 | 42.9 | 15.1
14 | NCC(=O)Nc1ccc(-n2nc(C(F)(F)F)cc2-c2ccc3c(ccc4ccccc43)c2)cc1 + Cc1cc(SCc2sc(-c3ccc(C(F)(F)F)c(F)c3)nc2C)ccc1OCC(=O)O [GW0742] (first compound 1 µM, partner dose 2 µM) | 95.9 | 46 | 65.4 | 107 | 84.4 | 54.1 | 58.7 | 85.2 | 84.6
15 | Nc1cccc2c1CN(C1CCC(=O)NC1=O)C2=O (stereo unspecified) [lenalidomide] + Cc1cc(SCc2sc(-c3ccc(C(F)(F)F)c(F)c3)nc2C)ccc1OCC(=O)O [GW0742] (first compound 1 µM, partner dose 2 µM) | 88.1 | 144 | 152 | 66.5 | 76.3 | 41.1 | 116 | 79.6 | 80.5
16 | C[As](C)SC[C@H](NC(=O)CC[C@H](N)C(=O)O)C(=O)NCC(=O)O [Darinaparsin] + COc1cc2ncnc(Nc3ccc(Oc4ccccc4)cc3)c2cc1OC [SrcI1] (first compound 0.4 µM, partner dose 2 µM) | 77.3 | 124 | 80.7 | 68.3 | 105 | 84.2 | 34 | 66.7 | 896
17 | C[As](C)SC[C@H](NC(=O)CC[C@H](N)C(=O)O)C(=O)NCC(=O)O [Darinaparsin] + N#Cc1c(O)c2c(-c3ccc(-c4ccccc4O)cc3)csc2[nH]c1=O [A769662] (first compound 0.4 µM, partner dose 2 µM) | 90.3 | 136 | 78 | 156 | 58.8 | 106 | 65.2 | 85.8 | 90.2
18 | C[As](C)SC[C@H](NC(=O)CC[C@H](N)C(=O)O)C(=O)NCC(=O)O [Darinaparsin] + O=S(=O)(c1ccccc1)N(CC(F)(F)F)c1ccc(C(O)(C(F)(F)F)C(F)(F)F)cc1 [T0901317] (first compound 0.4 µM, partner dose 1.4 µM) | 84.3 | 40.8 | 168 | 80.3 | 50 | 129 | 141 | 71.7 | 58.9
19 | CN(C)S(=O)(=O)c1ccc2c(c1)/C(=C/c1cc3c([nH]1)CCCC3)C(=O)N2 + Cc1cc(SCc2sc(-c3ccc(C(F)(F)F)c(F)c3)nc2C)ccc1OCC(=O)O [GW0742] (first compound 0.4 µM, partner dose 2 µM) | 91.1 | 68.6 | 97.5 | 123 | 69.7 | 211 | 697 | 167 | 72.6
20 | CC(C)(C)c1cnc(CSc2cnc(NC(=O)C3CCNCC3)s2)o1 + O=C(Oc1ccc([N+](=O)[O-])cc1)N1CCC(C(O)(c2ccc3c(c2)OCO3)c2ccc3c(c2)OCO3)CC1 [JZL184] (first compound 0.01 µM, partner dose 1 µM) | 117 | 83 | 185 | 105 | 120 | 82 | 126 | 87.4 | 38.6
21 | COc1cc2ncnc(Nc3ccc(Oc4ccccc4)cc3)c2cc1OC + C/C(O)=C(\C#N)C(=O)Nc1cc(Br)ccc1Br [LFM-A13] (first compound 2 µM, partner dose 2 µM) | 95.3 | 155 | 113 | 83.3 | 20.5 | 58.1 | 94.4 | 71.1 | 34.3
22 | C[As](C)SC[C@H](NC(=O)CC[C@H](N)C(=O)O)C(=O)NCC(=O)O [Darinaparsin] + O=C1NC(=O)/C(=C/c2ccc(-c3ccc(F)cc3O)o2)S1 [AS252424] (first compound 0.4 µM, partner dose 1 µM) | 110 | 199 | 28.5 | 102 | 81.4 | 127 | 26.3 | 93.6 | 107
23 | Oc1cc(-c2nc(-c3ccccc3)[nH]c2-c2ccncc2)ccc1Cl + O=C(Oc1ccc([N+](=O)[O-])cc1)N1CCC(C(O)(c2ccc3c(c2)OCO3)c2ccc3c(c2)OCO3)CC1 [JZL184] (first compound 0.2 µM, partner dose 1 µM) | 51.7 | 69.8 | 77.4 | 219 | 159 | 250 | 70.1 | 87.2 | 112
24 | C[As](C)SC[C@H](NC(=O)CC[C@H](N)C(=O)O)C(=O)NCC(=O)O [Darinaparsin] + Cc1cc([N+](=O)[O-])ccc1NS(=O)(=O)c1cc(Cl)ccc1Cl [FH535] (first compound 0.4 µM, partner dose 1 µM) | 218 | 62.6 | 173 | 54.7 | 124 | 42.9 | 191 | 162 | 36.3

Another view of part of the listing above:
Row,Compound,cleaved PARP positive nuclei fraction (CBRC034) [%],cleaved PARP positive nuclei fraction (COLO792) [%],cleaved PARP positive nuclei fraction (COLO800) [%],cleaved PARP positive nuclei fraction (COLO829) [%],cleaved PARP positive nuclei fraction (G361) [%],cleaved PARP positive nuclei fraction (IPC-298) [%],cleaved PARP positive nuclei fraction (IST-MEL1) [%],cleaved PARP positive nuclei fraction (LB2518-MEL) [%],cleaved PARP positive nuclei fraction (LOXIMVI) [%]
6,"CO[C@@H]1[C@H](N(C)C(=O)c2ccccc2)C[C@H]2O[C@]1(C)n1c3ccccc3c3c4c(c5c6ccccc6n2c5c31)C(=O)NC4 [Midostaurin] + O=C(Oc1ccc([N+](=O)[O-])cc1)N1CCC(C(O)(c2ccc3c(c2)OCO3)c2ccc3c(c2)OCO3)CC1 [JZL184] (first compound 0.08 µM, partner dose 1 µM)",99.3,60.1,81.8,128,51.2,114,86.3,77.7,84.6
10,"Nc1cccc2c1CN(C1CCC(=O)NC1=O)C2=O (stereo unspecified) [lenalidomide] + C/C(O)=C(\C#N)C(=O)Nc1cc(Br)ccc1Br [LFM-A13] (first compound 1 µM, partner dose 2 µM)",53.1,116,145,106,141,164,45.4,197,87.9
11,"C[C@@H]1CCN(C(=O)CC#N)C[C@@H]1N(C)c1ncnc2[nH]ccc12 + Cc1cc(SCc2sc(-c3ccc(C(F)(F)F)c(F)c3)nc2C)ccc1OCC(=O)O [GW0742] (first compound 1 µM, partner dose 2 µM)",87,58.2,83.6,214,79.9,105,89.7,88.6,66.9
12,"CC1(C)NC(=O)N(c2ccc([N+](=O)[O-])c(C(F)(F)F)c2)C1=O [nilutamide] + C/C(O)=C(\C#N)C(=O)Nc1cc(Br)ccc1Br [LFM-A13] (first compound 1 µM, partner dose 2 µM)",92.9,105,102,94.1,134,107,156,191,34.6
15,"Nc1cccc2c1CN(C1CCC(=O)NC1=O)C2=O (stereo unspecified) [lenalidomide] + Cc1cc(SCc2sc(-c3ccc(C(F)(F)F)c(F)c3)nc2C)ccc1OCC(=O)O [GW0742] (first compound 1 µM, partner dose 2 µM)",88.1,144,152,66.5,76.3,41.1,116,79.6,80.5
23,"Oc1cc(-c2nc(-c3ccccc3)[nH]c2-c2ccncc2)ccc1Cl + O=C(Oc1ccc([N+](=O)[O-])cc1)N1CCC(C(O)(c2ccc3c(c2)OCO3)c2ccc3c(c2)OCO3)CC1 [JZL184] (first compound 0.2 µM, partner dose 1 µM)",51.7,69.8,77.4,219,159,250,70.1,87.2,112
